{"source": "the supplement of paper PMC8728848", "experiment_in_all_cases": "glycan array binding signal (z-score within array); higher = stronger binding", "settings_in_all_cases": "glycan notation: IUPAC condensed, linker removed", "key": {"[1]": {"target": "Neu5Ac(a2-3)Gal(b1-4)GlcNAc(b1-2)[Neu5Ac(a2-3)Gal(b1-4)GlcNAc(b1-4)]Man(a1-3)[GlcNAc(b1-4)][Neu5Ac(a2-3)Gal(b1-4)GlcNAc(b1-4)Man(a1-6)]Man(b1-4)GlcNAc(b1-4)GlcNAc", "outline": "(§1)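 Glycan array binding is given as a within-array Z-score, which can be read as non-binding when negative. The arrays, 3228 of them, came from the Consortium for Functional Glycomics database and were retained only where the protein sequence was available. Z-scores were averaged across arrays of the same protein sequence at different concentrations or buffers and across linkers.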"}, "[2]": {"target": "Neu5Ac(a2-3)Gal(b1-4)GlcNAc(b1-2)[Neu5Ac(a2-3)Gal(b1-4)GlcNAc(b1-6)]Man(a1-6)[Neu5Ac(a2-3)Gal(b1-4)GlcNAc(b1-2)Man(a1-3)]Man(b1-4)GlcNAc(b1-4)GlcNAc", "outline": "as §1"}, "[3]": {"target": "Neu5Ac(a2-3)Gal(b1-4)GlcNAc(b1-2)[Neu5Ac(a2-3)Gal(b1-4)GlcNAc(b1-6)]Man(a1-6)[Neu5Ac(a2-3)Gal(b1-4)GlcNAc(b1-2)Man(a1-3)][GlcNAc(b1-4)]Man(b1-4)GlcNAc(b1-4)GlcNAc", "outline": "as §1"}, "[4]": {"target": "Neu5Ac(a2-3)Gal(b1-4)GlcNAc(b1-3)Gal", "outline": "as §1"}, "[5]": {"target": "Neu5Ac(a2-3)Gal(b1-4)GlcNAc(b1-3)Gal(b1-3)GlcNAc", "outline": "as §1"}, "[6]": {"target": "Neu5Ac(a2-3)Gal(b1-4)GlcNAc(b1-3)Gal(b1-4)GlcNAc", "outline": "as §1"}, "[7]": {"target": "Neu5Ac(a2-3)Gal(b1-4)GlcNAc(b1-3)Gal(b1-4)GlcNAc(b1-2)Man(a1-3)[Neu5Ac(a2-3)Gal(b1-4)GlcNAc(b1-3)Gal(b1-4)GlcNAc(b1-2)Man(a1-6)]Man(b1-4)GlcNAc(b1-4)GlcNAc", "outline": "as §1"}, "[8]": {"target": "Neu5Ac(a2-3)Gal(b1-4)GlcNAc(b1-3)Gal(b1-4)GlcNAc(b1-3)Gal(b1-4)GlcNAc", "outline": "as §1"}, "[9]": {"target": "Neu5Ac(a2-3)Gal(b1-4)GlcNAc(b1-3)Gal(b1-4)GlcNAc(b1-3)Gal(b1-4)GlcNAc(b1-2)Man(a1-3)[Neu5Ac(a2-3)Gal(b1-4)GlcNAc(b1-3)Gal(b1-4)GlcNAc(b1-3)Gal(b1-4)GlcNAc(b1-2)Man(a1-6)]GalNAc", "outline": "as §1"}, "[10]": {"target": "Neu5Ac(a2-3)Gal(b1-4)GlcNAc(b1-3)Gal(b1-4)GlcNAc(b1-3)GalNAc", "outline": "as §1"}, "[11]": {"target": "Neu5Ac(a2-3)Gal(b1-4)GlcNAc(b1-3)Gal(b1-4)GlcNAc(b1-3)[Neu5Ac(a2-3)Gal(b1-4)GlcNAc(b1-3)Gal(b1-4)GlcNAc(b1-6)]GalNAc", "outline": "as §1"}, "[12]": {"target": "Neu5Ac(a2-3)Gal(b1-4)GlcNAc(b1-3)Gal(b1-4)GlcNAc(b1-6)[Gal(b1-3)]GalNAc", "outline": "as §1"}, "[13]": {"target": "Neu5Ac(a2-3)Gal(b1-4)GlcNAc(b1-3)Gal(b1-4)[Fuc(a1-3)]GlcNAc", "outline": "as §1"}, "[14]": {"target": "Neu5Ac(a2-3)Gal(b1-4)GlcNAc(b1-3)GalNAc", "outline": "as §1"}, "[15]": {"target": "Neu5Ac(a2-3)Gal(b1-4)GlcNAc(b1-3)[Neu5Ac(a2-3)Gal(b1-4)GlcNAc(b1-6)]GalNAc", "outline": "as §1"}, "[16]": {"target": "Neu5Ac(a2-3)Gal(b1-4)GlcNAc(b1-6)GalNAc", "outline": "as §1"}, "[17]": {"target": "Neu5Ac(a2-3)Gal(b1-4)GlcNAc(b1-6)[Gal(b1-3)]GalNAc", "outline": "as §1"}, "[18]": {"target": "Neu5Ac(a2-3)Gal(b1-4)GlcNAc(b1-6)[Neu5Ac(a2-3)Gal(b1-3)]GalNAc", "outline": "as §1"}, "[19]": {"target": "Neu5Ac(a2-3)Gal(b1-4)GlcNAc6S", "outline": "as §1"}, "[20]": {"target": "Neu5Ac(a2-3)Gal(b1-4)[Fuc(a1-3)]GlcNAc", "outline": "as §1"}, "[21]": {"target": "Neu5Ac(a2-3)Gal(b1-4)[Fuc(a1-3)]GlcNAc(b1-2)Man", "outline": "as §1"}, "[22]": {"target": "Neu5Ac(a2-3)Gal(b1-4)[Fuc(a1-3)]GlcNAc(b1-3)Gal", "outline": "as §1"}, "[23]": {"target": "Neu5Ac(a2-3)Gal(b1-4)[Fuc(a1-3)]GlcNAc(b1-3)Gal(b1-4)GlcNAc", "outline": "as §1"}, "[24]": {"target": "Neu5Ac(a2-3)Gal(b1-4)[Fuc(a1-3)]GlcNAc(b1-3)Gal(b1-4)[Fuc(a1-3)]GlcNAc(b1-3)Gal(b1-4)[Fuc(a1-3)]GlcNAc", "outline": "as §1"}, "[25]": {"target": "Neu5Ac(a2-3)Gal(b1-4)[Fuc(a1-3)]GlcNAc(b1-3)GalNAc", "outline": "as §1"}, "[26]": {"target": "Neu5Ac(a2-3)Gal(b1-4)[Fuc(a1-3)]GlcNAc(b1-6)[Gal(b1-3)]GalNAc", "outline": "as §1"}, "[27]": {"target": "Neu5Ac(a2-3)Gal(b1-4)[Fuc(a1-3)]GlcNAc(b1-6)[Neu5Ac(a2-3)Gal(b1-3)]GalNAc", "outline": "as §1"}, "[28]": {"target": "Neu5Ac(a2-3)Gal(b1-4)[Fuc(a1-3)]GlcNAc6S", "outline": "as §1"}, "[29]": {"target": "Neu5Ac(a2-3)Gal6S(b1-4)GlcNAc", "outline": "as §1"}, "[30]": {"target": "Neu5Ac(a2-3)Gal6S(b1-4)[Fuc(a1-3)]GlcNAc", "outline": "as §1"}, "Neu5Ac(a2-3)GalNAc": {"target": "Neu5Ac(a2-3)GalNAc", "outline": "as §1"}, "[31]": {"target": "Neu5Ac(a2-3)GalNAc(b1-4)GlcNAc", "outline": "as §1"}, "[32]": {"target": "Neu5Ac(a2-3)[GalNAc(b1-4)]Gal(b1-4)Glc", "outline": "as §1"}, "[33]": {"target": "Neu5Ac(a2-3)[GalNAc(b1-4)]Gal(b1-4)GlcNAc", "outline": "as §1"}, "[34]": {"target": "Neu5Ac(a2-3)[GalNAc(b1-4)]Gal(b1-4)GlcNAc(b1-3)GalNAc", "outline": "as §1"}, "[35]": {"target": "Neu5Ac(a2-3)[Neu5Ac(a2-6)]GalNAc", "outline": "as §1"}, "Neu5Ac(a2-6)Gal": {"target": "Neu5Ac(a2-6)Gal", "outline": "as §1"}}, "note": "This is one part of the list."}
{"binder": "SspB C123 (Streptococcus gordonii), Q54186 (protein) MAHFHYSSLLAQPQINKEIKNEDGVDIDRTLVAKQSIGKFELKTEALTAGRPKTTSFVLVDPLPTGYKFDLDATKAASTGFDTTYDEASHTVTFKATDETLATYNADLTKPVETLHPTVVGRVLNDGATYTNNFTLTVNDAYGIKSNVVRVTTPGKPNDPDNPNNNYIKPTKVNKNKEGLNIDGKEVLAGSTNYYELTWDLDQYKGDKSSKEAIQNGFYYVDDYPEEALDVRPDLVKVADEKGNQVSGVSVQQYDSLEAAPKKVQDLLKKANITVKGAFQLFSADNPEEFYKQYVSTGTSLVITDPMTVKSEFGKTGGKYENKAYQIDFGNGYATEVVVNNVPKITPKKDVTVSLDPTSENLDGQTVQLYQTFNYRLIGGFIPQNHSEELEDYSFVDDYDQAGDQYTGNYKTFSSLNLTMKDGSVIKAGTDLTSQTTAETDATNGIVTVRFKEDFLQKISLDSPFQAETYLQMRRIAIGTFENTYVNTVNKVAYASAAALEHHHHHH", "values": [{"measurement": "glycan array binding signal (z-score)", "setting": "[1]", "result": -1.59}, {"measurement": "glycan array binding signal (z-score)", "setting": "[2]", "result": 2.43}, {"measurement": "glycan array binding signal (z-score)", "setting": "[3]", "result": -1.12}, {"measurement": "glycan array binding signal (z-score)", "setting": "[4]", "result": -0.393}, {"measurement": "glycan array binding signal (z-score)", "setting": "[5]", "result": -0.564}, {"measurement": "glycan array binding signal (z-score)", "setting": "[6]", "result": -0.62}, {"measurement": "glycan array binding signal (z-score)", "setting": "[7]", "result": 1.03}, {"measurement": "glycan array binding signal (z-score)", "setting": "[8]", "result": 1.89}, {"measurement": "glycan array binding signal (z-score)", "setting": "[9]", "result": 0.503}, {"measurement": "glycan array binding signal (z-score)", "setting": "[10]", "result": 0.115}, {"measurement": "glycan array binding signal (z-score)", "setting": "[11]", "result": 0.031}, {"measurement": "glycan array binding signal (z-score)", "setting": "[12]", "result": 0.036}, {"measurement": "glycan array binding signal (z-score)", "setting": "[13]", "result": 0.208}, {"measurement": "glycan array binding signal (z-score)", "setting": "[14]", "result": -1.2}, {"measurement": "glycan array binding signal (z-score)", "setting": "[15]", "result": -1.26}, {"measurement": "glycan array binding signal (z-score)", "setting": "[16]", "result": 0.695}, {"measurement": "glycan array binding signal (z-score)", "setting": "[17]", "result": 0.097}, {"measurement": "glycan array binding signal (z-score)", "setting": "[18]", "result": -1.57}, {"measurement": "glycan array binding signal (z-score)", "setting": "[19]", "result": -0.085}, {"measurement": "glycan array binding signal (z-score)", "setting": "[20]", "result": -0.176}, {"measurement": "glycan array binding signal (z-score)", "setting": "[21]", "result": 0.318}, {"measurement": "glycan array binding signal (z-score)", "setting": "[22]", "result": 0.014}, {"measurement": "glycan array binding signal (z-score)", "setting": "[23]", "result": 0.158}, {"measurement": "glycan array binding signal (z-score)", "setting": "[24]", "result": 2.7}, {"measurement": "glycan array binding signal (z-score)", "setting": "[25]", "result": 2.98}, {"measurement": "glycan array binding signal (z-score)", "setting": "[26]", "result": -0.062}, {"measurement": "glycan array binding signal (z-score)", "setting": "[27]", "result": 3.38}, {"measurement": "glycan array binding signal (z-score)", "setting": "[28]", "result": 0.086}, {"measurement": "glycan array binding signal (z-score)", "setting": "[29]", "result": -0.288}, {"measurement": "glycan array binding signal (z-score)", "setting": "[30]", "result": -0.28}, {"measurement": "glycan array binding signal (z-score)", "setting": "Neu5Ac(a2-3)GalNAc", "result": 0.009}, {"measurement": "glycan array binding signal (z-score)", "setting": "[31]", "result": -0.378}, {"measurement": "glycan array binding signal (z-score)", "setting": "[32]", "result": 0.61}, {"measurement": "glycan array binding signal (z-score)", "setting": "[33]", "result": -0.398}, {"measurement": "glycan array binding signal (z-score)", "setting": "[34]", "result": 1.53}, {"measurement": "glycan array binding signal (z-score)", "setting": "[35]", "result": -1.05}, {"measurement": "glycan array binding signal (z-score)", "setting": "Neu5Ac(a2-6)Gal", "result": -2.16}]}
